Assay results reported in patent US20250002528A1.
Positions count from the first letter of the chain named. In names and notes the source's numbering stands. Results are given in words; binding and its absence hold for the method and conditions named. Some binding calls cover weakened binding; strength is not graded here.

Assays:
[1] = molecular target: SpyTag003-sfGFP; test: resin capture at 4 °C, sfGFP fluorescence (FIG. 5E)
[2] = molecular target: SpyTag-sfGFP; test: as above
[3] = molecular target: SpyTag-sfGFP; test: resin capture of SpyTag-sfGFP at 4 °C; sfGFP fluorescence of flow-through, washes and 37 °C elution fractions, stacked bars [CONT.) E]
[4] = molecular target: SpyTag003-sfGFP; test: resin-coupled binder incubated with SpyTag003-sfGFP at pH 8.0 and 4 °C; sfGFP fluorescence of flow-through, wash and stepwise pH 6.0/5.0/4.0 elution fractions
[5] = molecular target: SpyTag-sfGFP; test: SpyDock resin capture from doped E. coli lysate at 4 °C, elution at 37 °C; reducing SDS-PAGE/Coomassie
[6] = molecular target: SpyTag003-sfGFP; test: SpyDock resin capture from doped E. coli lysate at 4 °C, elution at 37 °C; reducing SDS-PAGE/Coomassie [CONT.) D]
[7] = molecular target: SpyTag003-sfGFP; test: resin capture at 4 °C, fluorescence of flow-through, wash and 37 °C elution fractions
[8] = molecular target: SpyTag-sfGFP; test: as above
[9] = molecular target: SpyTag003-sfGFP; test: resin capture of SpyTag003-sfGFP at 4 °C; sfGFP fluorescence of flow-through, washes and 37 °C elution fractions, stacked bars [CONT.) E]
[10] = molecular target: SpyTag003-sfGFP; test: mutant on resin, binding at pH 8.0, stepwise pH elution, sfGFP fluorescence
[11] = molecular target: SpyTag003-sfGFP; test: resin capture and elution (summary of the examples)
[12] = molecular target: SpyTag-sfGFP; test: as above
[13] = molecular target: SpyTag003-sfGFP; test: resin-coupled binder incubated with SpyTag003-sfGFP at pH 8.0 and 4 °C; sfGFP fluorescence of flow-through, wash and stepwise pH 6.0/5.0/4.0 elution fractions [CONT.) C]
[14] = molecular target: SpyTag003-sfGFP; test: resin capture, stepwise pH elution, sfGFP fluorescence
[15] = molecular target: SpyTag003-sfGFP; test: affinity capture on SpySwitch resin from doped E. coli lysate, elution pH 5.0 at 4 °C, SDS-PAGE
[16] = molecular target: SpyTag-sfGFP; test: as above
[17] = molecular target: SpyTag003-sfGFP; test: SpySwitch resin capture from doped E. coli lysate at pH 7.5 and 4 °C, elution with pH 5.0 buffer at 4 °C; reducing SDS-PAGE/Coomassie
[18] = molecular target: SpyTag-sfGFP; test: as above
[19] = molecular target: SpyTag-sfGFP; test: SpySwitch resin stored 7 weeks in 20% (v/v) ethanol in TP buffer pH 7.0 at 4 °C, capture from doped E. coli lysate, elution at pH 5; reducing SDS-PAGE/Coomassie
[20] = molecular target: SpyTag003-sfGFP; test: affinity capture on SpySwitch resin before regeneration
[21] = molecular target: SpyTag003-sfGFP; test: affinity capture on SpySwitch resin from doped E. coli lysate, temperature elution at 37 °C, SDS-PAGE
[22] = molecular target: SpyTag-sfGFP; test: as above
[23] = molecular target: SpyTag003-sfGFP; test: SpySwitch resin capture from doped E. coli lysate at pH 7.5 and 4 °C, elution at pH 8.0 and 37 °C; reducing SDS-PAGE/Coomassie
[24] = molecular target: SpyTag-sfGFP; test: as above
[25] = molecular target: SpyTag003-sfGFP; test: resin binding before regeneration (FIG. 7B)
[26] = molecular target: SpyTag-sfGFP; test: affinity capture on SpySwitch resin stored 7 weeks in 20% ethanol at 4 °C, SDS-PAGE

Measured: binding

B1: SpyDock (designed binder)
chain: VTTLSGLSGEQGPSGDMTTEEDSATHIKFSKRDEDGRELAGATMELRDCSGKTISTWISDGHVKDFYLYPGKYTFVATAAPDGYEVATPITFTVNEDGQVTVNGEATEGDAHT
binds: [1] | [2] | [3] | [4] | [5] | [6] | [7] | [8] | [9]

B2: SpyCatcher003 S49C E77A S30H+G83H (designed binder)
chain: B1 chain with S30H, G83H, T91E, N103D
binds: [4] | [10]

B3: SpyCatcher003 S49C E77A S30H+Y84H (designed binder)
chain: B1 chain with S30H, Y84H, T91E, N103D
binds: [4] | [10]

B4: SpyDock2.0 (designed binder)
chain: B1 chain with S30H, Y84H, E85H, T91E, N103D
binds: [1] | [2] | [3] | [11] | [12] | [13] | [7] | [8] | [14] | [9]

B5: SpyCatcher003 S49C E77A S30H+E34H (designed binder)
chain: B1 chain with S30H, E34H, T91E, N103D
binds: [4] | [10]

B6: SpyCatcher003 S49C E77A S30H+E85H (designed binder)
chain: B1 chain with S30H, E85H, T91E, N103D
binds: [4] | [13] | [10]

B7: SpySwitch (designed binder)
chain: MSYYHHHHHHGSGGSGAMVTTLSGLSGEQGPSGDMTTEEDSATHIHFHKHDEDGRELAGATMELRDCSGKTISTWITDGHVKDFYLYPGKYTFVATAAPDGHHVATPIEFTINEDGQVTVDGEATEGDPHTGSSGS
not listed: [4] | [5] | [6] | [10] | [11] | [12] | [13] | [14]
binds: all other assays above
